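Viability assay of Plasmodium falciparum sporozoites; the read-out is not stated. The concentration is filed as 10 mM, unlikely as a test dose, so the dose is not known. Direction is inferred from retests: higher values go with lower viability. Strong results were mostly tested again. About 34,000 compounds were tested under these conditions; 0.84% (about 280) showed 50% or more at least once.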

Values are the deposited “Percent Effect”, in %. How 0% and 100% were set is not recorded. Most values in the screen are low, and negative values occur. Compounds were drawn at random from those tested, without regard to their results. Two or more numbers in one place are separate tests of the same structure; such repeats can differ widely.

SMILES	percent effect
O=C(CCNS(=O)(=O)c1ccccc1F)NCc1ccoc1	-4.902
CC(C)Nc1nc(O)cc(C2CC(=O)N(C3CCCCC3)C2)n1 (stereo unspecified)	0.4532
Cn1cc(C(=O)CC2CCCN2C(=O)c2ccncc2F)cn1 (stereo unspecified)	-4.571
CC(C)N(C)Cc1cnc2n1CCN(Cc1cccc(F)c1)C2.O=C(O)C(F)(F)F.O=C(O)C(F)(F)F	8.147
Cc1ccc(S(C)(=O)=O)cc1C(=O)NS(=O)(=O)c1ccc(Cl)cc1	-2.331
Cc1ccc(S(C)(=O)=O)cc1C(=O)N1CCCC(n2cncn2)C1 (stereo unspecified)	-5.064
O=C(Nc1nccs1)N1CCCC(N2CCNC2=O)C1 (stereo unspecified)	-4.604
O=C1CCc2ccccc2N1CCCn1cnnn1	-1.115
N#Cc1cccc(S(=O)(=O)NC(=O)CCOCC(F)(F)F)c1	0.9989
Cc1cc2c(=O)n3c(nc2s1)CCN(Cc1cnn(C)c1C)CC3.Cl	-10.55
Cn1ccc(CN2CCC(Oc3ccccc3)CC2)cc1=O	5.887
Cc1ccc(N2CCCC(NCc3cccs3)C2)nn1 (stereo unspecified)	0.5795
COCCN1CCN(CCCS(C)(=O)=O)CC1C (stereo unspecified)	13.62
CCc1nc(C)c(C(=O)NCCNC(=O)c2cccs2)s1	1.885
Cc1cccc(CN2CCN(Cc3ccccc3)CC(O)C2)n1 (stereo unspecified)	4.353
COc1cccc(CCNS(=O)(=O)c2ccc(NC(C)=O)cc2)c1	10.71
O=C(NCC1CCOCC1)c1cc(-c2cccnc2)c2cnccc2n1	1.77
COCCN1CCOCC2(CCCN(Cc3ccc(C)o3)C2)C1.O=C(O)C(F)(F)F.O=C(O)C(F)(F)F (stereo unspecified)	-1.407
CC(C)Oc1cccc(C(=O)C2CCCN(C(=O)c3ccnn3C)C2)c1 (stereo unspecified)	6.496
Fc1cccc(-c2nnn3c2COC(CNCc2nccs2)C3)c1.O=C(O)C(F)(F)F (stereo unspecified)	-3.152
Cc1nn(C)c(C)c1C1CCCN1CCCc1nc2ccccc2o1 (stereo unspecified)	7.04
Cc1cc(C)c(CNC(=O)NCC2COCCO2)c(=O)[nH]1 (stereo unspecified)	12.01
Cc1nccn1[C@@H]1CC[C@@H](NC(=O)Cn2c(C)nc3ccccc32)[C@H]1O	13.44
Cn1nc(C2CCCN(Cc3ccc(F)cc3F)C2)c2nccnc21 (stereo unspecified)	-87.34
Cc1nc(C)c(C(=O)N2Cc3ccccc3OCC2CN(C)C)o1.Cl.Cl (stereo unspecified)	1.898
[H][C@@]12COC[C@]1(COc1cccnc1)CN(C(=O)Cc1ccsc1)C2	7.699
CC(=O)NC1CCN(c2cnc(C3CCNCC3)cn2)CC1.Cl	7.039
O=C(NCCCNCC1CNc2ccnn2C1)c1ccccc1 (stereo unspecified)	-8.588
Cc1cccc(CN2C(=O)CCC23CCN(c2ccccn2)CC3)n1.O=C(O)C(F)(F)F.O=C(O)C(F)(F)F	5.235
O=C(c1cc2c(s1)CCC2)N1CCCC1c1noc(C2CC2)n1 (stereo unspecified)	70.13 and 20.02 and 4.704
COCCN1CCC2(CCN(c3ncccn3)CC2)C1=O.O=C(O)C(F)(F)F	7.581
Cc1noc(C2CCN(C(=O)c3ccc(N(C)C)nc3)CC2)n1	4.187
CC(C)c1ccc(-n2ncc(C(=O)N(C)C3CCN(C)CC3)c2N)cc1	23.53 and -1.355 and 41.27
COCCNC(=O)c1cc(S(=O)(=O)N2CCCC2)cs1	-0.7718
CC(C)N1CCC(N2CCC(C(=O)N(C)C)CC2)CC1.O=C(O)C(F)(F)F.O=C(O)C(F)(F)F	1.113
CC(C)c1nc(C2CCCN2c2cnc3ccccc3n2)no1 (stereo unspecified)	-13.65
O=C(c1c(F)cccc1F)N1CCC[C@@H]1Cn1c(=O)oc2ccccc21	-4.684
CCC(NC(=O)CCNC(=O)c1ccccc1F)c1cc(C)ccn1 (stereo unspecified)	-6.667 and 1.59
CCN1CCO[C@]2(CCC[C@H]2COCc2csc(C)n2)C1.O=C(O)C(F)(F)F.O=C(O)C(F)(F)F	-3.244
Cc1ccccc1OCCN(C)C(=O)NC(C)c1nncn1C (stereo unspecified)	3.483
CC(C)c1nnc2n1CCN(CC(=O)N1CCc3ccccc3C1)C2	3.298
CNC(=O)CCNC(=O)c1cc(C)n(-c2cccc(OC)c2)c1C	-3.385
Cc1ccc(N2CCCN(C(=O)CC3C=CCC3)CC2)nn1 (stereo unspecified)	12.22
CC(C)c1nc(C2CCCN2Cc2ccn(C)c(=O)c2)no1 (stereo unspecified)	18.68
CCOc1ncccc1NC(=O)N1CCN(CC(=O)NC)CC1	7.239
O=C(c1cnco1)N1C[C@@H](O)[C@H](Oc2cccc(F)c2)C1	-39.65
CNC(=O)CN1C(=O)CCC12CCCN(Cc1ccccc1F)C2 (stereo unspecified)	9.068
CCn1cc(CN2CCCN(C(=O)CCc3cccs3)CC2)cn1	2.082
CCC(C)(C)NC(=O)CN1C=Nc2ccccc2S1(=O)=O	-5.117
CCCc1noc(CCC(=O)N2CCCC2c2ccc(OC)cc2)n1 (stereo unspecified)	1.61
COc1cc(CNC(C)c2ccc(F)c(F)c2)cc2c1OCCO2.O=C(O)C(=O)O (stereo unspecified)	14.44
CCn1c(C)nnc1CN(C)C1CCN(CC2CCC2)C1 (stereo unspecified)	13.71
COCCC(=O)N1CCC2(COCc3cnc(-c4cccnc4)nc32)C1 (stereo unspecified)	12.4
CN(C(=O)Cc1ccc(NC(=O)NC2CC2)cc1)c1ccccc1	-5.431
Cc1ccoc1C(=O)NC1CCN(Cc2ccccc2F)CC1	1.211
Cc1nc2ccccc2nc1NCc1nnc2n1CCC2	-5.799
COc1cccc2c1OCC(C(=O)NC1CCN(S(C)(=O)=O)CC1)C2 (stereo unspecified)	-4.678
COc1ccc(C2CCCCCN2CCCNS(C)(=O)=O)cc1 (stereo unspecified)	5.291
CCOCC1CN(C(=O)N2CCCC2)Cc2cnn(C)c21 (stereo unspecified)	5.565
Cc1nc(O)c2nnn(C[C@H]3CCCN3C(=O)C(C)(C)C)c2n1	-4.005

Once more, the final 6:

{"smiles": "Cc1ccoc1C(=O)NC1CCN(Cc2ccccc2F)CC1", "percent effect": 1.211}
{"smiles": "Cc1nc2ccccc2nc1NCc1nnc2n1CCC2", "percent effect": -5.799}
{"smiles": "COc1cccc2c1OCC(C(=O)NC1CCN(S(C)(=O)=O)CC1)C2", "stereo": "stereo unspecified", "percent effect": -4.678}
{"smiles": "COc1ccc(C2CCCCCN2CCCNS(C)(=O)=O)cc1", "stereo": "stereo unspecified", "percent effect": 5.291}
{"smiles": "CCOCC1CN(C(=O)N2CCCC2)Cc2cnn(C)c21", "stereo": "stereo unspecified", "percent effect": 5.565}
{"smiles": "Cc1nc(O)c2nnn(C[C@H]3CCCN3C(=O)C(C)(C)C)c2n1", "percent effect": -4.005}

Measurements from “University of Dundee, Small-Polar-MMV Screening Library” (2021), ChEMBL document CHEMBL3988442.